Measurements: paper PMC9033857
No constants are given. Whether binding was seen depends on the method and setting. In cells and extracts the contact can be indirect. Some binding calls cover weakened binding; strength is not graded here. Where a sequence is shown, tags or fusion partners need not be part of it. Blank lines part the entries; values can stand above or below the binder they belong to.

Columns and labels:
Assay in all cases: FRET or BRET; single-molecule FRET between the two protomers; SNAP-tags labelled with DY-549P1 and Alexa-647 on live cells; receptors from IGEPAL lysate held on a PEG surface by biotinylated FLAG antibody; 10 mM EDTA, 10 mM Ca2+ or 10 mM Ca2+ + 5 mM L-Trp; room temperature, pH 7.35
[1] = target: CaSR construct with an N-terminal SNAP-tag and a C-terminal FLAG-tag (mouse) (UniProt Q9QY96)
[2] = target: SNAP-tagged CaSR C129S (mouse) (UniProt Q9QY96)
[3] = target: SNAP-tagged CaSR C131G (mouse) (UniProt Q9QY96)

- binding [1]: binds
B1: CaSR construct with an N-terminal SNAP-tag and a C-terminal FLAG-tag (receptor, UniProt Q9QY96 20-1079)
chain: YGPDQRAQKKGDIILGGLFPIHFGVAAKDQDLKSRPESVECIRYNFRGFRWLQAMIFAIEEINSSPALLPNMTLGYRIFDTCNTVSKALEATLSFVAQNKIDSLNLDEFCNCSEHIPSTIAVVGATGSGVSTAVANLLGLFYIPQVSYASSSRLLSNKNQFKSFLRTIPNDEHQATAMADIIEYFRWNWVGTIAADDDYGRPGIEKFREEAEERDICIDFSELISQYSDEEEIQQVVEVIQNSTAKVIVVFSSGPDLEPLIKEIVRRNITGRIWLASEAWASSSLIAMPEYFHVVGGTIGFGLKAGQIPGFREFLQKVHPRKSVHNGFAKEFWEETFNCHLQDGAKGPLPVDTFVRSHEEGGNRLLNSSTAFRPLCTGDENINSVETPYMDYEHLRISYNVYLAVYSIAHALQDIYTCLPGRGLFTNGSCADIKKVEAWQVLKHLRHLNFTNNMGEQVTFDECGDLVGNYSIINWHLSPEDGSIVFKEVGYYNVYAKKGERLFINEGKILWSGFSREVPFSNCSRDCQAGTRKGIIEGEPTCCFECVECPDGEYSGETDASACDKCPDDFWSNENHTSCIAKEIEFLAWTEPFGIALTLFAVLGIFLTAFVLGVFIKFRNTPIVKATNRELSYLLLFSLLCCFSSSLFFIGEPQDWTCRLRQPAFGISFVLCISCILVKTNRVLLVFEAKIPTSFHRKWWGLNLQFLLVFLCTFMQIVICIIWLYTAPPSSYRNHELEDEIIFITCHEGSLMALGSLIGYTCLLAAICFFFAFKSRKLPENFNEAKFITFSMLIFFIVWISFIPAYASTYGKFVSAVEVIAILAASFGLLACIFFNKVYIILFKPSRNTIEEVRSSTAAHAFKVAARATLRRPNISRKRSSSLGGSTGSIPSSSISSKSNSEDRFPQPERQKQQQPLALTQQEQQQQPLTLQPQQQQQPQQPRCKQKVIFGSGTVTFSLSFDEPQKNAMAHRNSMRQNSLEAQKSNDTLNRHQALLPLQCAEADSEMTIQETGLQGPMVGDHQPEIESPDEMSPALVMSTSRSFVISGGGSSVTENILHS
modifications: SNAP-tag labelled with benzylguanine DY-549P1 or benzylguanine Alexa-647

- binding [2]: binds
B2: SNAP-tagged CaSR C129S (receptor, UniProt Q9QY96 20-1079)
chain: YGPDQRAQKKGDIILGGLFPIHFGVAAKDQDLKSRPESVECIRYNFRGFRWLQAMIFAIEEINSSPALLPNMTLGYRIFDTCNTVSKALEATLSFVAQNKIDSLNLDEFSNCSEHIPSTIAVVGATGSGVSTAVANLLGLFYIPQVSYASSSRLLSNKNQFKSFLRTIPNDEHQATAMADIIEYFRWNWVGTIAADDDYGRPGIEKFREEAEERDICIDFSELISQYSDEEEIQQVVEVIQNSTAKVIVVFSSGPDLEPLIKEIVRRNITGRIWLASEAWASSSLIAMPEYFHVVGGTIGFGLKAGQIPGFREFLQKVHPRKSVHNGFAKEFWEETFNCHLQDGAKGPLPVDTFVRSHEEGGNRLLNSSTAFRPLCTGDENINSVETPYMDYEHLRISYNVYLAVYSIAHALQDIYTCLPGRGLFTNGSCADIKKVEAWQVLKHLRHLNFTNNMGEQVTFDECGDLVGNYSIINWHLSPEDGSIVFKEVGYYNVYAKKGERLFINEGKILWSGFSREVPFSNCSRDCQAGTRKGIIEGEPTCCFECVECPDGEYSGETDASACDKCPDDFWSNENHTSCIAKEIEFLAWTEPFGIALTLFAVLGIFLTAFVLGVFIKFRNTPIVKATNRELSYLLLFSLLCCFSSSLFFIGEPQDWTCRLRQPAFGISFVLCISCILVKTNRVLLVFEAKIPTSFHRKWWGLNLQFLLVFLCTFMQIVICIIWLYTAPPSSYRNHELEDEIIFITCHEGSLMALGSLIGYTCLLAAICFFFAFKSRKLPENFNEAKFITFSMLIFFIVWISFIPAYASTYGKFVSAVEVIAILAASFGLLACIFFNKVYIILFKPSRNTIEEVRSSTAAHAFKVAARATLRRPNISRKRSSSLGGSTGSIPSSSISSKSNSEDRFPQPERQKQQQPLALTQQEQQQQPLTLQPQQQQQPQQPRCKQKVIFGSGTVTFSLSFDEPQKNAMAHRNSMRQNSLEAQKSNDTLNRHQALLPLQCAEADSEMTIQETGLQGPMVGDHQPEIESPDEMSPALVMSTSRSFVISGGGSSVTENILHS
modifications: SNAP-tag labelled with benzylguanine DY-549P1 or benzylguanine Alexa-647

- binding [3]: binds
B3: SNAP-tagged CaSR C131G (receptor, UniProt Q9QY96 20-1079)
chain: YGPDQRAQKKGDIILGGLFPIHFGVAAKDQDLKSRPESVECIRYNFRGFRWLQAMIFAIEEINSSPALLPNMTLGYRIFDTCNTVSKALEATLSFVAQNKIDSLNLDEFCNGSEHIPSTIAVVGATGSGVSTAVANLLGLFYIPQVSYASSSRLLSNKNQFKSFLRTIPNDEHQATAMADIIEYFRWNWVGTIAADDDYGRPGIEKFREEAEERDICIDFSELISQYSDEEEIQQVVEVIQNSTAKVIVVFSSGPDLEPLIKEIVRRNITGRIWLASEAWASSSLIAMPEYFHVVGGTIGFGLKAGQIPGFREFLQKVHPRKSVHNGFAKEFWEETFNCHLQDGAKGPLPVDTFVRSHEEGGNRLLNSSTAFRPLCTGDENINSVETPYMDYEHLRISYNVYLAVYSIAHALQDIYTCLPGRGLFTNGSCADIKKVEAWQVLKHLRHLNFTNNMGEQVTFDECGDLVGNYSIINWHLSPEDGSIVFKEVGYYNVYAKKGERLFINEGKILWSGFSREVPFSNCSRDCQAGTRKGIIEGEPTCCFECVECPDGEYSGETDASACDKCPDDFWSNENHTSCIAKEIEFLAWTEPFGIALTLFAVLGIFLTAFVLGVFIKFRNTPIVKATNRELSYLLLFSLLCCFSSSLFFIGEPQDWTCRLRQPAFGISFVLCISCILVKTNRVLLVFEAKIPTSFHRKWWGLNLQFLLVFLCTFMQIVICIIWLYTAPPSSYRNHELEDEIIFITCHEGSLMALGSLIGYTCLLAAICFFFAFKSRKLPENFNEAKFITFSMLIFFIVWISFIPAYASTYGKFVSAVEVIAILAASFGLLACIFFNKVYIILFKPSRNTIEEVRSSTAAHAFKVAARATLRRPNISRKRSSSLGGSTGSIPSSSISSKSNSEDRFPQPERQKQQQPLALTQQEQQQQPLTLQPQQQQQPQQPRCKQKVIFGSGTVTFSLSFDEPQKNAMAHRNSMRQNSLEAQKSNDTLNRHQALLPLQCAEADSEMTIQETGLQGPMVGDHQPEIESPDEMSPALVMSTSRSFVISGGGSSVTENILHS
modifications: SNAP-tag labelled with benzylguanine DY-549P1 or benzylguanine Alexa-647
